According to doi:10.1101/871988:
Results are given in words; binding and its absence hold for the method and conditions named. Binding seen in cells or lysates may run through a third protein. A result given as binding can be weak or reduced; the word gives no strength.

Molecular target: T1, scavenger receptor B1 (SRB1) on Huh-7 cells (human (endogenous in Huh-7)) (UniProt Q8WTV0)
T1 sequence: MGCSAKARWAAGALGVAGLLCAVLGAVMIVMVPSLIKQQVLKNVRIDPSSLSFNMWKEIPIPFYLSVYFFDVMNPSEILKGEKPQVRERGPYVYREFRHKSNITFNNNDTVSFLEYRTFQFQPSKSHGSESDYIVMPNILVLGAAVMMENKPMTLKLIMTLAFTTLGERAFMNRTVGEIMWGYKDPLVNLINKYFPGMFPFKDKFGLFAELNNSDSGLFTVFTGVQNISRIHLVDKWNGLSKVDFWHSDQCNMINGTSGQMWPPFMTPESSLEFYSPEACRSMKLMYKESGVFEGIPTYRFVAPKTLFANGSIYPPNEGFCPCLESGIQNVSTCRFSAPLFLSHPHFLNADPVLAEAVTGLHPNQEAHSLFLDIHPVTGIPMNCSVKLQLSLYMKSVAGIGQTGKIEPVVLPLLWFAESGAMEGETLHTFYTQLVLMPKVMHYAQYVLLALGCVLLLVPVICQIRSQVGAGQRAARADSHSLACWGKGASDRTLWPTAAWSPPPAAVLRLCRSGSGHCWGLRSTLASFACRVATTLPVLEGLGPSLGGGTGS
Assay: proximity ligation

| Substance | binding |
| --- | --- |
| recombinant Zika virus non-structural protein 1 (ZIKV NS1) | binds |
| recombinant dengue virus non-structural protein 1 (DENV NS1) | binds |
